Some of the results follow.

Amino acid sequences for entries named in this document (tags omitted). A change or cut given only in a name is not applied to a line headed by its entry.
UniProt O15479: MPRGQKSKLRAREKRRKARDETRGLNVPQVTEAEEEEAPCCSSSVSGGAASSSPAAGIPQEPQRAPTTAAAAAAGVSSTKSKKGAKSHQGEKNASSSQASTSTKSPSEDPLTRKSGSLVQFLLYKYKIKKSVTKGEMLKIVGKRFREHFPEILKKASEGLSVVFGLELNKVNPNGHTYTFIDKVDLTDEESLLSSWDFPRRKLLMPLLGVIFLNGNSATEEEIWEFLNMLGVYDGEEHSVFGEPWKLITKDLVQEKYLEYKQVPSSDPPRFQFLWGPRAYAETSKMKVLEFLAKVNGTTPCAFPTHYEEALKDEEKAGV
UniProt O00462: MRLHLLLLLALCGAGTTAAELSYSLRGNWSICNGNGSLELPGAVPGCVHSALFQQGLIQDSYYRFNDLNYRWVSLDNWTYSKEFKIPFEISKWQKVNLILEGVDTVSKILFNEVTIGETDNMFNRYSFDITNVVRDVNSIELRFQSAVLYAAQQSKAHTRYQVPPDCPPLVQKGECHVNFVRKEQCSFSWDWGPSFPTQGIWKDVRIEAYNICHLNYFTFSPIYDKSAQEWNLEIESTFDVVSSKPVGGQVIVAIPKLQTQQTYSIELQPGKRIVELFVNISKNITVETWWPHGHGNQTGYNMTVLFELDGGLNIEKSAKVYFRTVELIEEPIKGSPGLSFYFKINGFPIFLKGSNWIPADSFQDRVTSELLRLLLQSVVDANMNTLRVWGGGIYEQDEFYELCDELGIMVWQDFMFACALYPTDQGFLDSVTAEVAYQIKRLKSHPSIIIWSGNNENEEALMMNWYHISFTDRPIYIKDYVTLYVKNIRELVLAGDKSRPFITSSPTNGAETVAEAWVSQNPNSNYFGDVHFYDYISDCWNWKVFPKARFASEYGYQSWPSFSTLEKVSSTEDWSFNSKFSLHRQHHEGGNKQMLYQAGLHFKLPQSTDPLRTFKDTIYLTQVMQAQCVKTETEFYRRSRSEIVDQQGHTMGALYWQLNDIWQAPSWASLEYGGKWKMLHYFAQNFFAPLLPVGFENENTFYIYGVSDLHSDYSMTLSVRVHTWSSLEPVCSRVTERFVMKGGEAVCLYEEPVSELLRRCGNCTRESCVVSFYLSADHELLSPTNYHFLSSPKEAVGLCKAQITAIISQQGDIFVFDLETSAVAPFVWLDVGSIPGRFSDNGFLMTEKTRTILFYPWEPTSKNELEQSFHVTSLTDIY
UniProt Q3KQU3: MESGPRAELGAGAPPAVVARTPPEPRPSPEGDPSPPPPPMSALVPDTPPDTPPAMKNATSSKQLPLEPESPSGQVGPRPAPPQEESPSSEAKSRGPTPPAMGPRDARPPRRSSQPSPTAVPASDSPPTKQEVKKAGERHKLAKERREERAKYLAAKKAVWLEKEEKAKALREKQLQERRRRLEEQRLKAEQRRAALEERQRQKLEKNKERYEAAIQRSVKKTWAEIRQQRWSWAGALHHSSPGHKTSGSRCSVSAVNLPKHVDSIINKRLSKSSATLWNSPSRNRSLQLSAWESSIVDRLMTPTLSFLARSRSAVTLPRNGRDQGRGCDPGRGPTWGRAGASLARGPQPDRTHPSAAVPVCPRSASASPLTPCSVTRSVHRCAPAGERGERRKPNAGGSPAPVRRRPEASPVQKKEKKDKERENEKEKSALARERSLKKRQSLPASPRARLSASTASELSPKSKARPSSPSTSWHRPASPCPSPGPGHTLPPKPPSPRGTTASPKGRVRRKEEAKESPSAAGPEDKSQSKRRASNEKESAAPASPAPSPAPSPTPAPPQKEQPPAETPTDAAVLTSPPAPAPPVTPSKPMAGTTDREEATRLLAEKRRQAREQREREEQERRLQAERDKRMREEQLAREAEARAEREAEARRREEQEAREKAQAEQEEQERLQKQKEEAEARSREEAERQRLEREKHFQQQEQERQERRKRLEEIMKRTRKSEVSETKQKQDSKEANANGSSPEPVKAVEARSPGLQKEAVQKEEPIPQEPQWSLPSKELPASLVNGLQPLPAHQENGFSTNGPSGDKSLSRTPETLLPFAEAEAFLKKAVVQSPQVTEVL
UniProt P20645: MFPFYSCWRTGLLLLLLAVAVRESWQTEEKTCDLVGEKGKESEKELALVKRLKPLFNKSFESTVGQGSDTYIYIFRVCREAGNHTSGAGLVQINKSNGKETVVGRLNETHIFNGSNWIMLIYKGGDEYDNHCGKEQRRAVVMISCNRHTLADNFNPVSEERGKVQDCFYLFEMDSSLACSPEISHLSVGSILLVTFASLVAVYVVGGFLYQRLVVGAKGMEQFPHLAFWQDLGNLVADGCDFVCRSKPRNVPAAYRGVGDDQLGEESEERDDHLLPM
UniProt P62312: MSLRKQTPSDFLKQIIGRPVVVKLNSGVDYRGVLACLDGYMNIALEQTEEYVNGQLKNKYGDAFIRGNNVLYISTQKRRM
UniProt Q9Y608: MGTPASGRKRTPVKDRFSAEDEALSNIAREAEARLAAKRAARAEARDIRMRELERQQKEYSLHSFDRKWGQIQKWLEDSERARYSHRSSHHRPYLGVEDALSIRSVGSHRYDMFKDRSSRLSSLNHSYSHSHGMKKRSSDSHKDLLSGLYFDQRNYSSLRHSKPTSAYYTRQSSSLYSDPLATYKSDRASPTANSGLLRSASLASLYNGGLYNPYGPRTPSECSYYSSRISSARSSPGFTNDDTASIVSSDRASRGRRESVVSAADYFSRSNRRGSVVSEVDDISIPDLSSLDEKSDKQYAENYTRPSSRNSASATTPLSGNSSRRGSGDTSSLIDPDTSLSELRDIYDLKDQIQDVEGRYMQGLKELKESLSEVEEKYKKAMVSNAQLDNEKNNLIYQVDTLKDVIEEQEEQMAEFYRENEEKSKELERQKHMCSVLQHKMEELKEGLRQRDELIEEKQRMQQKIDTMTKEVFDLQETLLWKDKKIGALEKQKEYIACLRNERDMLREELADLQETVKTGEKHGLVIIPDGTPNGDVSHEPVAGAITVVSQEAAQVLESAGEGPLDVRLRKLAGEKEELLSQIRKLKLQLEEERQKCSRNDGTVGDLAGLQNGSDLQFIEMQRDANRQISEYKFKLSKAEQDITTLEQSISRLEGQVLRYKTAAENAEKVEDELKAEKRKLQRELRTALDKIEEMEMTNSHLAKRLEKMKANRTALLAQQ
UniProt Q6UWE0: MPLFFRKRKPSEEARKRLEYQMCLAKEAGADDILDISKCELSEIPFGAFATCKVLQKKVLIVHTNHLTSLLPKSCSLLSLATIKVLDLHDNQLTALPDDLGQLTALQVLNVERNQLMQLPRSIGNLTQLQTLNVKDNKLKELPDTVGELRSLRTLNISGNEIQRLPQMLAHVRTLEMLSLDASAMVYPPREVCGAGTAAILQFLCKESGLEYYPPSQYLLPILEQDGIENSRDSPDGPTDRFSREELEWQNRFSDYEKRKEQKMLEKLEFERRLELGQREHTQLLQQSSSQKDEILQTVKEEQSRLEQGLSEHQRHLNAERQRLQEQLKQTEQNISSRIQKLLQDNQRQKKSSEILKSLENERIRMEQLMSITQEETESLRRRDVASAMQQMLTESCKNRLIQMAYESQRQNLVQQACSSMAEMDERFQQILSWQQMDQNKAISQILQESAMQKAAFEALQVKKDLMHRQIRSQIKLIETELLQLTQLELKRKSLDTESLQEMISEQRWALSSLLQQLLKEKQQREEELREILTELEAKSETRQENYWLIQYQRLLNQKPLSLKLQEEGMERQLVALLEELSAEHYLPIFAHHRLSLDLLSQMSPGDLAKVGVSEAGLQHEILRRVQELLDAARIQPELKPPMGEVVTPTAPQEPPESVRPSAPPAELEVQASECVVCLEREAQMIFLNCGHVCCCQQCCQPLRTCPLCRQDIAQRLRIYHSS
UniProt Q16706: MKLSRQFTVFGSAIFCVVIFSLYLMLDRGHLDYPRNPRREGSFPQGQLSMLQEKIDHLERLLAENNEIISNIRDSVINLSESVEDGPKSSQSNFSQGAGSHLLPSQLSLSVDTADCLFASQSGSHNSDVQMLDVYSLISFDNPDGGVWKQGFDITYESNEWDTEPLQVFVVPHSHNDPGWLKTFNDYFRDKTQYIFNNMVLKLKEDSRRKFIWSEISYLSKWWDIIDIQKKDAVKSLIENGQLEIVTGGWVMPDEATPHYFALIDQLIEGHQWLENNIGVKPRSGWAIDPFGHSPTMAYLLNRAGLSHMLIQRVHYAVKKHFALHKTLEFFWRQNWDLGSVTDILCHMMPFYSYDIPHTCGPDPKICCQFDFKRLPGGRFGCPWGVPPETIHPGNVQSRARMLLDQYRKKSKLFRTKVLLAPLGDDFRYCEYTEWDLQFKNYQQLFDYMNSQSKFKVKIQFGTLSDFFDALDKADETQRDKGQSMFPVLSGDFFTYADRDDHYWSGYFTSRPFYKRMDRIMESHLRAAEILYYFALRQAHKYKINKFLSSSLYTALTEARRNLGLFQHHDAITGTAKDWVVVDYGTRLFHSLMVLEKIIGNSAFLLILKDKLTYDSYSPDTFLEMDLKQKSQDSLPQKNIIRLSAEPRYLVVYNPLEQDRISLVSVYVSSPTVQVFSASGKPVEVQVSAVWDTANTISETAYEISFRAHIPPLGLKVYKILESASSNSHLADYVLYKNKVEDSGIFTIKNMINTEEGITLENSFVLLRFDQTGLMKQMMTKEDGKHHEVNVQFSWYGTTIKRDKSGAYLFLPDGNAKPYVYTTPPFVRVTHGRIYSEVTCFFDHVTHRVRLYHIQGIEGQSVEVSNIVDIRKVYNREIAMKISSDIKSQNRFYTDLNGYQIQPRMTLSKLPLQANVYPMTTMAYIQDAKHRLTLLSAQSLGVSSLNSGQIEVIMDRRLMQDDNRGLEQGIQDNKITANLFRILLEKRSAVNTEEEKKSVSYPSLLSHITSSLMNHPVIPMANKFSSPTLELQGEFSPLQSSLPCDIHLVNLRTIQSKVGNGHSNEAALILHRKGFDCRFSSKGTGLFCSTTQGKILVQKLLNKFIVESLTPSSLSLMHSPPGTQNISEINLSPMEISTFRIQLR
UniProt Q8N5G2: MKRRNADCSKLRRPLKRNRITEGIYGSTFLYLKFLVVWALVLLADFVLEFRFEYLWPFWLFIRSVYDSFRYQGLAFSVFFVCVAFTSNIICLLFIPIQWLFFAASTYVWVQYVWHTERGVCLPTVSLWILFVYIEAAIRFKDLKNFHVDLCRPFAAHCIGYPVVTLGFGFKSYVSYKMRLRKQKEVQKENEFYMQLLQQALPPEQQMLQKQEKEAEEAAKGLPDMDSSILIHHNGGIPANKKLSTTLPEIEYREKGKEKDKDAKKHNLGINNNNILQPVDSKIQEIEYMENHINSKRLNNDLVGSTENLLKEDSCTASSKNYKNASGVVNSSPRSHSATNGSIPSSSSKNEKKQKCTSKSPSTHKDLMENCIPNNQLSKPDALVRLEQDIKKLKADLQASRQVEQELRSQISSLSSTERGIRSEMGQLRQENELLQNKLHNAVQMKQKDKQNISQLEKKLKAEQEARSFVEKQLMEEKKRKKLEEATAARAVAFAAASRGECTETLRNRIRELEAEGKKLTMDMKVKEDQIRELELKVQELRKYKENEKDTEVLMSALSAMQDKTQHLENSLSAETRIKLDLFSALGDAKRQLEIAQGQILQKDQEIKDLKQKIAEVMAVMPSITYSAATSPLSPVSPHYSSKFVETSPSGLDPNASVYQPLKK
UniProt P55145: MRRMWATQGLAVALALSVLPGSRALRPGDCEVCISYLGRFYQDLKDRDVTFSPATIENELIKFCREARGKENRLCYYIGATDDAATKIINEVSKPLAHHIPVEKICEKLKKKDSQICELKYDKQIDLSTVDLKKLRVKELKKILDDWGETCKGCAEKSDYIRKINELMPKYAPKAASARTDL
UniProt Q14244: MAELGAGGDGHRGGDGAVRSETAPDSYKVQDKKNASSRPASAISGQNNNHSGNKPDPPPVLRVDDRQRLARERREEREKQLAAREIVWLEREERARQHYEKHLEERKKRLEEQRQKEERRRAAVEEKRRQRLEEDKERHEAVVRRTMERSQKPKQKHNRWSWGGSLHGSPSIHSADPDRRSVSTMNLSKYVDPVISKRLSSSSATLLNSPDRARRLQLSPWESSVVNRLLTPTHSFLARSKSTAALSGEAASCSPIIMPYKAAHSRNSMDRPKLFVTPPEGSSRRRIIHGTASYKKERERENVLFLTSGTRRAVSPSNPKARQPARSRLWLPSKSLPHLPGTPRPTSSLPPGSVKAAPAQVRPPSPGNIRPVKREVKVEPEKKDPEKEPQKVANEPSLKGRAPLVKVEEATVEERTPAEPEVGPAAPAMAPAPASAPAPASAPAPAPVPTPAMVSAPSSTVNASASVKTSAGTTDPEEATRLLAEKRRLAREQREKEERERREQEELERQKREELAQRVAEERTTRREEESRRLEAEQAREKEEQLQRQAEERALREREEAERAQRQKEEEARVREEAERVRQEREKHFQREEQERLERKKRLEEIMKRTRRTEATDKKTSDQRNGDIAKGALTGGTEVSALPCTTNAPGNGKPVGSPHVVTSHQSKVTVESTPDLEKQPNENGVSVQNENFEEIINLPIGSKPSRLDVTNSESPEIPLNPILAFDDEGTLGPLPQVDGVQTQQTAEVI

The values below come from the supplement of paper PMC10849652.

Compound in one experiment: CC1=C(C=C(C=C1)NC(=O)C2=CC(=CC=C2)N(C)C)NC(=O)C3=CC=C(C=C3)O
The experiment is described as follows: log2 fold change, soluble protein after heating vs DMSO (PISA); higher = thermal stabilisation; K562 cells, 10 uM, 30 min; active = over 0.2 and 3.5 SD of the protein, either way, in both replicates (recomputed). The procedure, abridged:
(§1)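 K562 cells (2×10^6 cells/mL) were treated with 10 μM compound for 30 min, and aliquots were heated for 3 min over 48°C-58°C. Pooled aliquots were extracted in PBS with 0.5% NP-40 at 4°C, and the supernatant after 21,000xg for 90 min was measured by TMTpro 16plex LC-MS/MS with channel sums equalised. Reported thermal stability, relative to control samples and from duplicates, is a log2 fold change.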
Turning to LYRM4 (UniProt Q9HD34), the log2 fold change was inactive: -0.012.
Still for that read-out and setting: next, MAGEB2 (UniProt O15479): inactive: 0.284; MAP1A isoform 2 (UniProt P78559): inactive: -0.013; MANBA (UniProt O00462): inactive: 0.056.
On the same count and under the same terms, next, MAP7D1 (UniProt Q3KQU3): inactive: -0.002; MAEA (UniProt Q7L5Y9): inactive: -0.033; MARCHF6 (UniProt O60337): inactive: 0.055.
For LRRC8A (UniProt Q8IWT6), the log2 fold change was inactive: 0.008.
As for MAGT1 (UniProt Q9H0U3), the log2 fold change is inactive: 0.008.
The same measure, in the same setting: next, M6PR (UniProt P20645): inactive: 0.01.
For the target LSM6 (UniProt P62312), the log2 fold change is inactive: -0.013.
With LSM2 (UniProt Q9Y333), the log2 fold change is inactive: 0.026.
Same read-out and setting: the value for MACF1 (UniProt H3BQK9) was inactive: -0.052; that for LYZ (UniProt P61626) was inactive: 0.219; that for MAP2K4 isoform 2 (UniProt P45985) was inactive: 0.025.
LRRFIP2 (UniProt Q9Y608): the log2 fold change is inactive: -0.035.
As to MAN2C1 isoform 4 (UniProt Q9NTJ4), the log2 fold change is inactive: 0.043.
On to LRSAM1 (UniProt Q6UWE0), for which the log2 fold change was inactive: 0.003.
For MAN2A1 (UniProt Q16706), the log2 fold change was inactive: 0.009.
As to LSM4 (UniProt Q9Y4Z0), the log2 fold change was inactive: 0.011.
For MAPK1 (UniProt P28482), the log2 fold change is inactive: -0.027.
As to MACO1 (UniProt Q8N5G2), the log2 fold change was inactive: 0.009.
Consider MAN2A2 (UniProt P49641), for which the log2 fold change is inactive: -0.044.
For the target MALSU1 (UniProt Q96EH3), the log2 fold change is inactive: 0.076.
Still for that read-out and setting: next, MANF (UniProt P55145): inactive: -0.021.
Turning to MARCHF5 (UniProt Q9NX47), the log2 fold change is inactive: 0.02.
Regarding MAP7 isoform 7 (UniProt Q14244), the log2 fold change is inactive: 0.011.
For MAN1B1 (UniProt Q9UKM7), the log2 fold change is inactive: -0.007.
Consider MAD2L1BP isoform 3 (UniProt Q15013), for which the log2 fold change was inactive: 0.02.
The same measure, in the same setting: the value for MAPRE1 (UniProt Q15691) was inactive: -0.03.
As to LSM3 (UniProt P62310), the log2 fold change was inactive: -0.027.
For LYAR (UniProt Q9NX58), the log2 fold change was inactive: -0.098.
Still for that read-out and setting: the value for LSM7 (UniProt Q9UK45) was inactive: 0.006.

Compound in a further experiment: CC1=CC=C(C=C1)SC2=C3C=C(SC3=CN=C2)C(=O)N
The description is as above. The gist of the method:
as §1
Regarding LYRM4 (UniProt Q9HD34), the log2 fold change was inactive: 0.062.
Same read-out and setting: next, MAGEB2 (UniProt O15479): inactive: 0.022.
Still for that read-out and setting: the value for MAP1A isoform 2 (UniProt P78559) was inactive: -0.02.
For MANBA (UniProt O00462), the log2 fold change was inactive: 0.015.
On to MAP7D1 (UniProt Q3KQU3), for which the log2 fold change was inactive: -0.035.
Turning to MAEA (UniProt Q7L5Y9), the log2 fold change is inactive: -0.048.
Consider MARCHF6 (UniProt O60337), for which the log2 fold change is inactive: -0.009.
On to LRRC8A (UniProt Q8IWT6), for which the log2 fold change was inactive: -0.026.
Still for that read-out and setting: the value for MAGT1 (UniProt Q9H0U3) was inactive: 0.027; that for M6PR (UniProt P20645) was inactive: 0.185.
As for LSM6 (UniProt P62312), the log2 fold change is inactive: 0.009.
LSM2 (UniProt Q9Y333): the log2 fold change is inactive: 0.033.
MACF1 (UniProt H3BQK9): the log2 fold change is inactive: -0.017.
As for LYZ (UniProt P61626), the log2 fold change was inactive: 0.156.
Consider MAP2K4 isoform 2 (UniProt P45985), for which the log2 fold change was inactive: -0.007.
As to LRRFIP2 (UniProt Q9Y608), the log2 fold change is inactive: -0.036.
Consider MAN2C1 isoform 4 (UniProt Q9NTJ4), for which the log2 fold change is inactive: -0.01.
On to LRSAM1 (UniProt Q6UWE0), for which the log2 fold change was inactive: 0.061.
Turning to MAN2A1 (UniProt Q16706), the log2 fold change is inactive: -0.034.
In the case of LSM4 (UniProt Q9Y4Z0), the log2 fold change is inactive: 0.133.
As to MAPK1 (UniProt P28482), the log2 fold change is inactive: 0.024.
Turning to MACO1 (UniProt Q8N5G2), the log2 fold change was inactive: 0.061.
As for MAN2A2 (UniProt P49641), the log2 fold change was inactive: -0.006.
Still for that read-out and setting: the value for MALSU1 (UniProt Q96EH3) was inactive: 0.014; that for MANF (UniProt P55145) was inactive: 0.098.
For the target MARCHF5 (UniProt Q9NX47), the log2 fold change is inactive: -0.011.
As for MAP7 isoform 7 (UniProt Q14244), the log2 fold change was inactive: -0.107.
Still for that read-out and setting: next, MAN1B1 (UniProt Q9UKM7): inactive: -0.009; MAD2L1BP isoform 3 (UniProt Q15013): inactive: -0.007.
On to MAPRE1 (UniProt Q15691), for which the log2 fold change is inactive: 0.016.
Take LSM3 (UniProt P62310): the log2 fold change was inactive: 0.035.
On the same count and under the same terms, next, LYAR (UniProt Q9NX58): inactive: -0.157.
Turning to LSM7 (UniProt Q9UK45), the log2 fold change was inactive: 0.078.

Compound in another experiment: CC1=NC(=CC=C1)C2=C(N=C(N2)C(C)(C)C)C3=CC4=NC=CN=C4C=C3
Described as above. The procedure, abridged: as §1
As to LYRM4 (UniProt Q9HD34), the log2 fold change is inactive: 0.008.
As for MAGEB2 (UniProt O15479), the log2 fold change is inactive: -0.154.
Consider MAP1A isoform 2 (UniProt P78559), for which the log2 fold change was inactive: -0.008.
Regarding MANBA (UniProt O00462), the log2 fold change was inactive: -0.053.
For the target MAP7D1 (UniProt Q3KQU3), the log2 fold change is inactive: -0.045.
As for MAEA (UniProt Q7L5Y9), the log2 fold change was inactive: -0.029.
In the case of MARCHF6 (UniProt O60337), the log2 fold change was inactive: -0.01.
On to LRRC8A (UniProt Q8IWT6), for which the log2 fold change is inactive: -0.053.
On to MAGT1 (UniProt Q9H0U3), for which the log2 fold change is inactive: -0.07.
M6PR (UniProt P20645): the log2 fold change is inactive: -0.029.
For LSM6 (UniProt P62312), the log2 fold change is inactive: -0.001.
Regarding LSM2 (UniProt Q9Y333), the log2 fold change is inactive: 0.061.
Turning to MACF1 (UniProt H3BQK9), the log2 fold change is inactive: 0.012.
Turning to LYZ (UniProt P61626), the log2 fold change is inactive: -0.069.
As for MAP2K4 isoform 2 (UniProt P45985), the log2 fold change was inactive: 0.011.
Regarding LRRFIP2 (UniProt Q9Y608), the log2 fold change was inactive: 0.015.
Still for that read-out and setting: the value for MAN2C1 isoform 4 (UniProt Q9NTJ4) was inactive: -0.038.
For LRSAM1 (UniProt Q6UWE0), the log2 fold change is inactive: 0.022.
As for MAN2A1 (UniProt Q16706), the log2 fold change is inactive: -0.024.
Consider LSM4 (UniProt Q9Y4Z0), for which the log2 fold change was inactive: 0.005.
Consider MAPK1 (UniProt P28482), for which the log2 fold change is inactive: 0.034.
For the target MACO1 (UniProt Q8N5G2), the log2 fold change is inactive: -0.005.
Still for that read-out and setting: the value for MAN2A2 (UniProt P49641) was inactive: 0.049.
On to MALSU1 (UniProt Q96EH3), for which the log2 fold change was inactive: 0.053.
Same read-out and setting: the value for MANF (UniProt P55145) was inactive: 0.009.
Turning to MARCHF5 (UniProt Q9NX47), the log2 fold change was inactive: 0.003.
MAP7 isoform 7 (UniProt Q14244): the log2 fold change is inactive: -0.087.
Regarding MAN1B1 (UniProt Q9UKM7), the log2 fold change was inactive: 0.004.
Still for that read-out and setting: the value for MAD2L1BP isoform 3 (UniProt Q15013) was inactive: 0.018; that for MAPRE1 (UniProt Q15691) was inactive: 0.091; that for LSM3 (UniProt P62310) was inactive: 0.045.
With LYAR (UniProt Q9NX58), the log2 fold change is inactive: -0.245.
For the target LSM7 (UniProt Q9UK45), the log2 fold change is inactive: -0.008.
